Measurements reported in patent US20260049134A1.
Residue numbers refer to the chain shown, from its start. No constants are given. Whether binding was seen depends on the method and setting.

B1: HW-1 chimeric rabbit-human IgG1 LA/LA/PG (antibody, V domains shown)
VH: QSLEESGGGLFKPTDTLTLTCTASGFSLGSSYAISWVRQAPGKELEWIGTIDSGRAYYARWAKSRSTITRNTNENTVTLKMTSLTAADTATYFCARDLIPTYSQDIWGPGTLVTISS
VL: SFVLTQPASVQVNLGQTVSLTCTADTLSRRYASWYQQKPGQAPVLLIYRDTSRPSGVPDRFSGSSSGNTATLTISGAQAGDEADYYCATSDGSGNSYQYVFGGGTQLTVTS
B2: HW-17 chimeric rabbit-human IgG1 LA/LA/PG (antibody, V domains shown)
VH: QSLGESRGRLVTPDETLTLTCTVSGIDLSSNAMSWVRQAPGEGLEWIGTINTGGRAYYASWAKGRFTISRTSTTVDLKMTSLTTEDTATYFCARERYSDGRAYDIWGPGTLVTISS
VL: B1 VL with R49T, T51S, S52N, V57I, S90D, N95S, S96I, S111G
B3: HW-8 chimeric rabbit-human IgG1 LA/LA/PG (antibody, V domains shown)
VH: QSLEESGGRLVTPGTPLTLTCTVSGFSLSSYAMSWVRQAPGKGLEWIGAISTGGSTTYASWAKGRFTISKTSSTTVDLKMTSLTTEDTATYFCVRHFRLWGPGTLVTISS
VL: QVLTQTPSSVSAAVGGTVTIKCQASQSIGSALAWFQQKPGQRPKLLIYRASNLASGVPSRFKGSGSGTEFALTISGVQREDAATYYCLGGAAAVWAFGAGTNVEIKR
B4: HW-97 chimeric rabbit-human IgG1 LA/LA/PG (antibody, V domains shown)
VH: QKQLVESGGRLVTPGTPLTLTCTVTGIDLSSHGMSWVRQAPGKGLEWIGVIYPSGSTWYASWARGRFTISKTSTTVDLKMTSLTTEDTATHFCARGDVGGADNNIWGPGTLVTVSS
VL: B1 VL with N13D, D25E, R30S, N95S, S111G
B5: HW-101 chimeric rabbit-human IgG1 LA/LA/PG (antibody, V domains shown)
VH: QEQLVESGGRLVTPGTPLTLTCKASGFSLGKYDMSWVRQAPGKGLEWIGTIYAGSGSTWYASWAKGRFTISKTSTTVDLKMTSLTTEDTATYFCARDFLGVNSIWGPGTLVTISS
VL: B1 VL with R30S, G40D, Y48H, S65N, N95S, S96N, Y97F, Q98H, Y99F, S111G
B6: HW-113 chimeric rabbit-human IgG1 LA/LA/PG (antibody, V domains shown)
VH: QKQLVESGGGLVQPGGSLTLTCTVSGFSLNKYYMGWFRQAPGKGLEWIGVISRSGDTYYSSWAKGRFTISKASTTVDLRITSPTTEDTATYFCARDASSPGFHGDRLDLWGQGTLVTVSS
VL: B1 VL with R30S, S93I, N95S, S96N, Q98L, Y99W, S111G
B7: TH9-0022 (antibody, human IgG1, kappa, L234A L235A, V domains shown)
VH: QSLEESGGRLVTPGTPLTLTCTVSGFSLSSYAMNWVRQAPGKGLEWIGIINSYGSTYYASWAKGRFTISKTSTTVDLKITSPTTEDTATYFCARVTYDSYGYGYAPYGMDLWGPGTLVTVSS
VL: LVMTQTPSSTSNAVGGTVTIKCQASQSIGNVLAWYQQKPGQPPKLLIYAASTLASGVPSRVGGSRSGTEYTLTISGVQREDAATYYCLGSDSDSDIAFGGGTELEILR
B8: HW-42 chimeric rabbit-human IgG1 LA/LA/PG (antibody, V domains shown)
VH: QSVKESEGGLFKPADTLTLTCTVSGFSLSSNEISWVRQAPGEGLEYIGIIDTGGRAYYAVWARSRSTITRNTNLNTVTLKMTSLTAADTATYFCARGGVDTEWYAFSSWGPGTLVTVPS
VL: B1 VL with Y48F, N68D, N95S, S96N, S111G
B9: HW-70 chimeric rabbit-human IgG1 LA/LA/PG (antibody, V domains shown)
VH: QSLEESGGRLVTPGTPLTLTCTVSGFSLSSNAMSWVRQAPGKGLEWIGTIDGYGYTYYASWAKGRFTVSKTSTTVDLKITSPTTEDTATYFCAREIYLGSNFWGPGTLVTISS
VL: B1 VL with S90A, N95S, Y99F, S111G
B10: HW-25 chimeric rabbit-human IgG1 LA/LA/PG (antibody, V domains shown)
VH: QSLEESGGRLVTPGTPLTLTCTVSGFSLSSYAMGWVRQAPGKGLEWIGIIDSRGSTYYATWAKGRFTISKTSTTVDLKITSPTTEDTATYFCAREDSYYYDSFNLWGPGTLVTVSS
VL: B1 VL with N95S, Y99C, S111G

Molecular target: APP
Assay: ELISA on coated protein

Row | Binder | binding
1 | B1 | no binding (tested: 150 ng IgG1 per well)
2 | B2 | no binding (tested: 150 ng IgG1 per well)
3 | B3 | no binding (tested: 150 ng IgG1 per well)
4 | B4 | no binding (tested: 150 ng IgG1 per well)
5 | B5 | no binding (tested: 150 ng IgG1 per well)
6 | B6 | no binding (tested: 150 ng IgG1 per well)
7 | B7 | no binding (tested: 150 ng IgG1 per well)
8 | B8 | no binding (tested: 150 ng IgG1 per well)
9 | B9 | no binding (tested: 150 ng IgG1 per well)
10 | B10 | no binding (tested: 150 ng IgG1 per well)

Molecular target: APP
Assay: ELISA on coated APP-His

Row | Binder | binding
11 | B1 | no binding (tested: 150 ng IgG1 per well)
12 | B2 | no binding (tested: 150 ng IgG1 per well)
13 | B3 | no binding (tested: 150 ng IgG1 per well)
14 | B4 | no binding (tested: 150 ng IgG1 per well)
15 | B5 | no binding (tested: 150 ng IgG1 per well)
16 | B6 | no binding (tested: 150 ng IgG1 per well)
17 | B7 | no binding (tested: 150 ng IgG1 per well)
18 | B8 | no binding (tested: 150 ng IgG1 per well)
19 | B9 | no binding (tested: 150 ng IgG1 per well)
20 | B10 | no binding (tested: 150 ng IgG1 per well)
